Measurements from publication doi:10.1101/2023.01.13.523841.
No constants are given. Whether binding was seen depends on the method and setting. In cells and extracts the contact can be indirect. Binding can be weak; no strength is given. Where a sequence is shown, tags or fusion partners need not be part of it.

Biological target: FUG1, BiFC fusion in pUC-SPYCE (cYFP-X) (Arabidopsis thaliana)
Test: split reporter

B1: ALFIN LIKE 3 (AL3), BiFC fusion in pUC-SPYNE (nYFP-X) (protein, UniProt Q9M2B4 1-250)
chain: MEGGAALYNPRTVEEVFKDFKGRRTAIVKALTTDVQEFYQQCDPEKENLCLYGLPNEEWEVNLPAEEVPPELPEPALGINFARDGLSEKEWLSLVAIHSDAWLLSVSFYFGSRFSFHKEERKRLFNMINDVPTIFEVVTGMAKAKDKSSAANQNGNKSKSNSKVRTSEGKSSKTKQPKEEDEEIDEDDEDDHGETLCGACGDSDGADEFWICCDLCEKWFHGKCVKITPARAEHIKQYKCPSCSNKRARA
With B1 as the binder, how does the binding read?
The binding was “binds”.
